Assay results reported in PubChem BioAssay AID588497 (NMMLSC, 2011).
In all, about 360,000 compounds went through this assay and about 780 (0.22%) were called active. Inconclusive means that the source gave no clear call. Such entries were picked first, then a sample of the others. Cut-off read from the data, not from the text of the source: active = inhibition above about 35% (passing the limit was not always enough); inconclusive = no clear call, values can overlap the other calls.

Tested on: Botulinum neurotoxin type F light chain protease (Clostridium botulinum)
Test: BoNT/F light chain protease inhibitors, primary screen, biochemical, flow cytometry, MLPCN library (AID 588497); note: plate controls were buffer without enzyme for full effect and enzyme alone for no effect
Conditions: Multiplex microsphere protease cleavage assay, at 10 µM, active compounds read high

Row | Structure (SMILES) | inhibition
1 | COc1cccc(CNC(=O)Cn2nc([N+](=O)[O-])c(Br)c2C)c1 | inconclusive: 34%
2 | O=C(CCC(=O)N1CCC2(CC1)OCCO2)Nc1nnc(C2CCCCC2)s1 | inconclusive: -1.1%
3 | N#CC12CCCCC1CC1CCCCC1(C#N)N2CCO (stereo not drawn) | inconclusive: 5.7%
4 | O=c1cc(CO)oc(C(Nc2ccccn2)c2ccc(C(F)(F)F)cc2)c1O (stereo not drawn) | inactive: 7.4%
5 | CNc1oc(-c2ccc(C)cc2)nc1P(=O)(c1ccccc1)c1ccccc1 | inactive: 19.4%
6 | Cc1ccc(C)c(C(=O)Cn2ncc(Cl)c(Cl)c2=O)c1 | inactive: -1.1%
7 | Cc1ccccc1C(=O)NCCCn1ccnc1 | active: 36.6%
8 | O=C(Nc1cccc2c1CCCC2)c1ccccc1F | inconclusive: -20.6%
9 | C=CCn1c(SCC(=O)NCc2ccccc2)nnc1C1CCCCC1 | inactive: -2.4%
10 | O=C1C=C(N2CCCCC2)c2ccccc2C1=O | inconclusive: -80.1%
11 | CN(CCn1ccnc1)Cc1cn(Cc2ccccc2)nc1-c1ccc2c(c1)OCO2 | inactive: 3.3%
12 | OC(c1ccccc1)(c1nc(-c2cc(F)cc(F)c2)cs1)C(F)(F)F (stereo not drawn) | inactive: -1.6%
13 | COc1cc(C(=O)Nc2nc(C)cc(C)n2)cc(OC)c1OC | inconclusive: 84.8%
14 | CSc1ccc(NC(=O)C(C)N2CCN(C)CC2)cc1 (stereo not drawn) | inconclusive: -37.3%
15 | COc1ccc(Cn2ccnc2)cc1[N+](=O)[O-] | inactive: -5.5%
16 | CC(C)(C)C(=O)Nc1nnc(-c2ccccc2)c(-c2ccccc2)n1 | inconclusive: -20.2%
17 | CO/N=C/CC(=O)c1ccc([N+](=O)[O-])c(CS(=O)(=O)c2ccc(Cl)cc2)c1 | inconclusive: -14.5%
18 | COc1ccccc1NC(=O)N1CCCC1C(=O)NCc1ccccc1Cl (stereo not drawn) | inconclusive: -21.1%
19 | O=C(Nc1ccc(Nc2ccccc2)cc1)c1cc([N+](=O)[O-])ccc1Cl | inconclusive: -0.4%
20 | NNC(=O)CNC(c1ccccc1)c1cc(Cl)ccc1NC(=O)c1ccccc1 (stereo not drawn) | active: 43.2%
21 | Fc1cccc(CNCC2CCCO2)c1 (stereo not drawn) | inconclusive: 12.8%
22 | O=C(NC(=S)Nc1cccc(O)c1)c1ccco1 | inconclusive: -15.9%
23 | COC(=O)c1ccsc1NC(=O)CCS(=O)(=O)c1ccc(Cl)cc1 | inactive: 4.2%
24 | O=S(=O)(c1cccc(S(=O)(=O)N2CCCC2)c1)c1cccc(S(=O)(=O)N2CCCC2)c1 | inactive: -3.6%

Row | Structure (SMILES) | inhibition
25 | COc1ccc(CN2CCCC(CO)(Cc3ccc(F)cc3)C2)cc1C (stereo not drawn) | inconclusive: -3.7%
26 | O=S(=O)(NCc1ccccc1Cl)c1ccc(-n2cccn2)cc1 | inactive: 2.8%
27 | COC(=O)C(C)N(C#N)c1nc(NC(C)C)nc(SC)n1 (stereo not drawn) | inconclusive: -10%
28 | Cc1ccc(-n2cnc(N)c2C(=O)c2cccc([N+](=O)[O-])c2)cc1 | inconclusive: -5.7%
29 | CCCCOC(=O)Nc1cccc(Cl)c1C | inactive: -4.3%
30 | COc1ccccc1Cn1c(C)nc2ccccc21 | active: 39%
31 | Cc1ccccc1N(CC(=O)NCC1CCCO1)C(=O)CNS(=O)(=O)c1ccc(F)cc1 (stereo not drawn) | inactive: -32.4%
32 | O=S(=O)(Nc1nc(-c2ccccc2)cs1)c1cc(Cl)ccc1Cl | inconclusive: -4.9%
33 | CC(=O)N1N=C(c2ccncc2)OC12CCCCCC2 | inactive: -13.6%
34 | O=C(Nc1ccccc1Cl)ON=C1c2ccccc2-c2ccccc21 | inactive: -9.4%
35 | COc1ccc(CN2CCC(C(=O)c3ccc(Cl)cc3)CC2)cc1 | inconclusive: 20.3%
36 | Cc1nn(C(C)c2n[nH]c(=S)n2-c2ccc(F)cc2)c(C)c1[N+](=O)[O-] (stereo not drawn) | inactive: -6.3%
37 | COc1ccccc1-n1cc(-c2ccccc2)[nH]c1=S | inconclusive: -12.7%
38 | CC1CC(C)CN(C(C(=O)NC2CCCCC2)c2ccnc3ccccc23)C1 (stereo not drawn) | inactive: -4%
39 | O=S(=O)(c1ccc(C2=CSC3=NCCN23)cc1)N1CCOCC1 | inconclusive: -50.6%
40 | Cc1ccc(OC(=O)COc2ccccc2C)cc1 | inactive: -11.2%
41 | CC1=CC2C(C(O)CC3(C)C2CC(C)C32OCOC23COCO3)C2(C)C/C(=C\O)C(=O)C=C12 (stereo not drawn) | inactive: 14.9%
42 | COc1ccc(OC)c(CNc2ncc(-c3cccc([N+](=O)[O-])c3)n2C)c1 | inconclusive: 20.4%
43 | COc1ccc(/C=C/C(=O)Nc2ccc(-n3nncc3-c3ccc(OC)c(OC)c3)cc2)cc1OC | inactive: -4.4%
44 | Cc1csc(NC(=O)c2cccn2C)n1 | inactive: 4.2%
45 | COc1ccc(OC)c(S(=O)(=O)n2cnc3ccccc32)c1 | inconclusive: -4.4%
46 | O=c1ccc(-c2ccccc2)nn1Cc1ccc(Cl)cc1 | inconclusive: -6%
47 | COc1cc2c(cc1OC)C(c1ccc(Br)cc1)N(C(=O)c1ccccc1C(=O)O)CC2 (stereo not drawn) | inconclusive: 8.7%
48 | O=C(Nc1ccn(Cc2c(F)c(F)cc(F)c2F)n1)c1ccc(COc2cc(Cl)ccc2Cl)o1 | inactive: 4.5%

Row | Structure (SMILES) | inhibition
49 | Cc1ccc(C(=O)Nc2ccc3c(c2)nc2n3CCSC2)cc1 | inactive: 3.5%
50 | O=C(Nc1ccncc1)c1cccc2ccccc12 | inconclusive: -97%
51 | COc1c(C)cccc1C(=O)NCc1ccc2c(c1)OCO2 | active: 35.6%
52 | c1ccc2oc(-c3[nH]ncc3CN(Cc3ccncc3)CC3CCCO3)cc2c1 (stereo not drawn) | inactive: 3%
53 | Cn1c(O)c(C=NC2CCN(Cc3ccccc3)CC2)c(=O)[nH]c1=O | inconclusive: -33.2%
54 | C=CCn1c(SCC(=O)N2CCOCC2)nc(O)cc1=O | inconclusive: 23.5%
55 | CC(=O)c1c(COC(=O)c2ccc(C)cc2)nc2ccccc2[n+]1[O-] | inconclusive: -4.8%
56 | COc1ccc(NC(=O)c2ccco2)cc1NC(=O)COc1ccccc1[N+](=O)[O-] | inconclusive: 7%
57 | CCOC(=O)c1cccc(NC(=O)c2ccc3c(c2)OCO3)c1 | inconclusive: 8.7%
58 | O=C(O)CCC(=O)Nc1cccc(-c2nc3ccccc3o2)c1 | inactive: 21.2%
59 | CCCCn1nnnc1C1(C)CCC(=O)N1Cc1ccc(C)cc1 (stereo not drawn) | inactive: 7.2%
60 | COc1cccc(-n2c(N)c(C(=O)Nc3c(C)n(C)n(-c4ccccc4)c3=O)c3nc4ccccc4nc32)c1 | inconclusive: -9.7%
61 | CN(C)S(=O)(=O)c1cccc(NC(=O)COC(=O)CCc2nc3ccccc3s2)c1 | inconclusive: 3.1%
62 | CCOc1ccc(CCNC(=O)COn2nnc3ccc(S(=O)(=O)N4CCOCC4)cc32)cc1OCC | inconclusive: -6.5%
63 | O=C(c1ccncc1)N(Cc1cc2ccccc2[nH]c1=O)C1CCCCC1 | inactive: -0.8%
64 | Cc1nc(-c2ccc(S(=O)(=O)Oc3ccc(Cl)cc3Cl)s2)cs1 | inconclusive: 63%
65 | COc1ccc(CNC2CCCc3ccccc32)c(OC)c1 (stereo not drawn) | inconclusive: 7.6%
66 | CCOC(=O)c1sc(=S)n(C)c1NC(=O)c1ccccc1Cl | inactive: 1.4%
67 | C=CCn1c(CCC(O)COCCCCC)n[nH]c1=S (stereo not drawn) | inconclusive: 81%
68 | CC1=C(C(=O)OCc2ccccc2)C(c2ccc([N+](=O)[O-])cc2)NC(=O)N1 (stereo not drawn) | inactive: -1.7%
69 | COc1ccccc1C1CCN(c2ccc(CO)cc2[N+](=O)[O-])CC1 | inconclusive: 18.1%
70 | CS(=O)(=O)c1ccc(C(=O)OCC(=O)NC(=O)C2CCCCC2)cc1[N+](=O)[O-] | inactive: -8.1%
71 | COC(=O)CSc1nc(COc2ccccc2)nc2ccccc12 | inconclusive: -13.9%
72 | CCOC(=O)N1CCN(CCC(=O)Nc2ccccc2)CC1 | inconclusive: -2.2%

Row | Structure (SMILES) | inhibition
73 | COC(=O)[C@]12CCCCC=C1N(Cc1ccco1)C(=O)[C@H](CC(=O)N1CCCCC1)C2 | inactive: -2.2%
74 | CCOC(=O)N1CCC(N2C(=O)c3ccccc3C2Nc2ccc3c(c2)OCCO3)CC1 (stereo not drawn) | inactive: 6.6%
75 | O=C(O)CCCN1C(=O)/C(=C\c2ccco2)SC1=S | inactive: -2.2%
76 | Cc1ccc(NC(=O)C2CC(=O)n3ncnc3N2)cc1C (stereo not drawn) | inactive: 4%
77 | COCCn1c(C(C)C)nc2sc3ccccc3c(=O)c2c1=O | inactive: 5.7%
78 | Cc1cc(C)nc(SCc2c(F)cccc2Cl)n1 | inconclusive: -19.5%
79 | O=C(NN1C(=O)C2C(c3ccccc3)C=CC(c3ccccc3)C2C1=O)c1cccc(Br)c1 (stereo not drawn) | inactive: 0.7%
80 | CCC(=O)N1CCc2cc(-c3csc(NC(=O)c4ccco4)n3)ccc21 | active: 34.7%
81 | Cc1ccc2nc(SCC(=O)NCc3ccc(S(N)(=O)=O)cc3)[nH]c2c1 | inconclusive: 33.6%
82 | CCC(=Nc1cccc(C(F)(F)F)c1)c1c(O)n(C)c(=O)n(C)c1=O | inconclusive: -40.4%
83 | O=c1[nH]c(SCc2ccc(F)cc2Cl)nc2ccccc12 | inactive: -1.4%
84 | Cc1ccc(OCc2nnc(SCc3nc4ccccc4[nH]3)n2Cc2ccco2)cc1 | inactive: 3%
85 | OC1(c2cccs2)CN(c2ccc(Br)cc2)C2=[N+]1CCCS2 (stereo not drawn) | inconclusive: 12.2%
86 | Cc1ccc(C(=O)c2oc3ccc(Cl)cc3c2NC(=O)CN2CCN(C)CC2)cc1 | inactive: 6.7%
87 | CCOC(=O)c1ccccc1NC(=O)[C@@H]1CCCN1C(=O)OC(C)(C)C | inactive: -3%
88 | COc1ccc2c(c1)c(C(=O)CNc1nc(C)cs1)c(C)n2C | inconclusive: -23.4%
89 | O=C(O)CSC1CC(=O)N(c2ccc(Br)cc2)C1=O (stereo not drawn) | inactive: 14.1%
90 | O=[N+]([O-])c1ccc(Cl)cc1NCc1cccnc1 | inconclusive: 110%
91 | Cc1cccc(-n2c(C)nc3ccsc3c2=O)c1 | inconclusive: -3.1%
92 | O=C(COC(=O)C1CCN(c2ccc(C(F)(F)F)cn2)CC1)Nc1cccc(F)c1 | inconclusive: -51.5%
93 | CCOC(=O)C(C)Oc1c(C(=O)OC)sc2ncccc12 (stereo not drawn) | inactive: -0.9%

An excerpt from above in order of heavy-atom count, descending:
Row | Structure (SMILES) | inhibition
80 | CCC(=O)N1CCc2cc(-c3csc(NC(=O)c4ccco4)n3)ccc21 | active: 34.7%
82 | CCC(=Nc1cccc(C(F)(F)F)c1)c1c(O)n(C)c(=O)n(C)c1=O | inconclusive: -40.4%
77 | COCCn1c(C(C)C)nc2sc3ccccc3c(=O)c2c1=O | inactive: 5.7%
89 | O=C(O)CSC1CC(=O)N(c2ccc(Br)cc2)C1=O (stereo not drawn) | inactive: 14.1%
